# Experimental data from patent publication US9084799B2, “Inhaled combination therapy” (Pulmagen Therapeutics (Synergy) Limited, priority 2005, dated 2015).
# At least one structure is not confirmed: it was looked up by name or label, or the drawing left a doubt.
# Tested on: TS induced BAL inflammation
# Test: Tobacco smoke (TS) induced BAL inflammation, 11 daily exposures, BAL cell counts
# Type: in vivo, A/J mice
# Conditions: monotherapy, oral or intra-nasal
# Excerpt: Female inbred A/J mice (body weights on initial day of use: ˜20 g) were obtained from Harlan, full barrier bred and certified free from specified micro-organisms on receipt. The mice were housed, up to 5 per cage, in individually ventilated, polycarbonate solid bottomed cages (IVC) with grade 8 aspen chip bedding. Environment (airflow, temperature and humidity) within the cages was controlled by the IVC system (Techniplast). Food (RM 1, Special Diet Services) and water were provided ad libitum. Individual animals were identified by unique coloured “pentel” markings on their tails, weighed and randomly assigned to treatment groups.
# In this exposure protocol, mice were exposed in groups of 5 in individual clear polycarbonate chambers (27 cm×16 cm×12 cm). The TS from the cigarettes was allowed to enter the exposure chambers at a flow rate of 100 ml/min. […]
# Lavage fluid was separated from cells by centrifugation and the supernatant decanted and frozen for subsequent analysis. The cell pellet was re-suspended in a known volume of PBS and total cell numbers calculated by counting a stained (Turks stain) aliquot under a microscope using a haemocytometer.
# The residual cell pellet was diluted to approximately 10^5 cells per ml. […] When dried and cover-slipped, differential cells were counted using light microscopy. Up to 400 cells were counted by unbiased operator using light microscopy. […]
smiles,measurement,value
C[C@@H]1C[C@H]2[C@@H]3CCC4=CC(=O)C=C[C@]4(C)[C@@]3(F)[C@@H](O)C[C@]2(C)[C@@]1(O)C(=O)CO [Dexamethasone],inhibition of total number of cells recovered in the BAL induced by TS exposure,Neither theophylline nor dexamethasone monotherapy when given orally or by the intra-nasal route significantly inhibited
same,"inhibitory effect on specific cell types in BAL (macrophages, neutrophils, lymphocytes)",No statistically significant inhibitory effect
